Measurements as given in the supplement of paper PMC7661543.
± gives the standard deviation of the averaged measurements. Differences between knockout arms are mostly noise.

Tested on: BT-20
Assay: relative cell number vs DMSO control (72 h) (% of DMSO); higher = less growth inhibition (more cells)
Protocol: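 QMAP-Seq: a pool of 5 breast cancer cell lines (ZR-75-1, SKBR3, HCC-38, MDA-MB-231, BT-20), each carrying 12 doxycycline-inducible Cas9 sgRNA perturbations (11 knockouts plus non-targeting sgNT), was treated with compounds for 72 h at four 10-fold doses (10 nM-10 uM or 1 nM-1 uM range). Barcodes were amplified and sequenced, and cell number was interpolated from 293T spike-in standard curves. The result is expressed as % of the median of DMSO wells. Two biological replicates.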

[1] = sgRNA knockout: sgATF3, 1000 nM
[2] = sgRNA knockout: sgATF3, 10000 nM
[3] = sgRNA knockout: sgATF4, 1000 nM
[4] = sgRNA knockout: sgATF4, 10000 nM
[5] = sgRNA knockout: sgATF6, 1000 nM
[6] = sgRNA knockout: sgATF6, 10000 nM
[7] = sgRNA knockout: sgATG7, 1000 nM
[8] = sgRNA knockout: sgATG7, 10000 nM
[9] = sgRNA knockout: sgERN1, 1000 nM
[10] = sgRNA knockout: sgERN1, 10000 nM
[11] = sgRNA knockout: sgHSF1, 1000 nM
[12] = sgRNA knockout: sgHSF1, 10000 nM
[13] = sgRNA knockout: sgHSF2, 1000 nM
[14] = sgRNA knockout: sgHSF2, 10000 nM
[15] = sgRNA knockout: sgKEAP1, 100 nM
[16] = sgRNA knockout: sgKEAP1, 1000 nM
[17] = sgRNA knockout: sgKEAP1, 10000 nM
[18] = sgRNA knockout: sgNFE2L2, 10 nM
[19] = sgRNA knockout: sgNFE2L2, 100 nM
[20] = sgRNA knockout: sgNFE2L2, 1000 nM
[21] = sgRNA knockout: sgNFE2L2, 10000 nM
[22] = sgRNA knockout: sgSLC35F2, 10 nM
[23] = sgRNA knockout: sgSLC35F2, 100 nM
[24] = sgRNA knockout: sgSLC35F2, 1000 nM
[25] = sgRNA knockout: sgSLC35F2, 10000 nM
[26] = sgRNA knockout: sgXBP1, 1000 nM
[27] = sgRNA knockout: sgXBP1, 10000 nM

## COc1cc2nccc(Oc3ccc(NC(=O)C4(C(=O)Nc5ccc(F)cc5)CC4)cc3)c2cc1OC [Cabozantinib]
sgRNA knockout: sgATF3, 10 nM
  relative cell number: 99.8 ± 4.8
sgRNA knockout: sgATF3, 100 nM
  relative cell number: 98.3 ± 10
[1]
  relative cell number: 101 ± 1.9
[2]
  relative cell number: 58.9 ± 3.8
sgRNA knockout: sgATF4, 10 nM
  relative cell number: 99.9 ± 7.3
sgRNA knockout: sgATF4, 100 nM
  relative cell number: 111 ± 11
[3]
  relative cell number: 90.9 ± 8.6
[4]
  relative cell number: 58.5 ± 9.1
sgRNA knockout: sgATF6, 10 nM
  relative cell number: 103 ± 8.7
sgRNA knockout: sgATF6, 100 nM
  relative cell number: 81.444 ± 0.04
[5]
  relative cell number: 82.6 ± 20
[6]
  relative cell number: 55.5 ± 3.1
sgRNA knockout: sgATG7, 10 nM
  relative cell number: 114 ± 5.1
sgRNA knockout: sgATG7, 100 nM
  relative cell number: 93 ± 11
[7]
  relative cell number: 110 ± 8.6
[8]
  relative cell number: 61 ± 8.4
sgRNA knockout: sgERN1, 10 nM
  relative cell number: 95.2 ± 4
sgRNA knockout: sgERN1, 100 nM
  relative cell number: 90.9 ± 1.6
[9]
  relative cell number: 106 ± 26
[10]
  relative cell number: 59.4 ± 21
sgRNA knockout: sgHSF1, 10 nM
  relative cell number: 107 ± 5.7
sgRNA knockout: sgHSF1, 100 nM
  relative cell number: 105 ± 22
[11]
  relative cell number: 88.3 ± 14
[12]
  relative cell number: 58.2 ± 16
sgRNA knockout: sgHSF2, 10 nM
  relative cell number: 95.9 ± 11
sgRNA knockout: sgHSF2, 100 nM
  relative cell number: 103 ± 5.8
[13]
  relative cell number: 95.9 ± 17
[14]
  relative cell number: 62.2 ± 17
sgRNA knockout: sgKEAP1, 10 nM
  relative cell number: 94.9 ± 14
[15]
  relative cell number: 90.3 ± 3.9
[16]
  relative cell number: 88.5 ± 2.2
[17]
  relative cell number: 56.8 ± 3.9
[18]
  relative cell number: 121 ± 2.6
[19]
  relative cell number: 99.4 ± 28
[20]
  relative cell number: 116 ± 20
[21]
  relative cell number: 56.4 ± 4.9
[22]
  relative cell number: 109 ± 9.8
[23]
  relative cell number: 101 ± 9.4
[24]
  relative cell number: 94 ± 12
[25]
  relative cell number: 68 ± 10
sgRNA knockout: sgXBP1, 10 nM
  relative cell number: 93.5 ± 1.1
sgRNA knockout: sgXBP1, 100 nM
  relative cell number: 106 ± 1.3
[26]
  relative cell number: 102 ± 14
[27]
  relative cell number: 54.9 ± 22

## CC(C)C[C@H](NC(=O)[C@H](CCc1ccccc1)NC(=O)CN1CCOCC1)C(=O)N[C@@H](Cc1ccccc1)C(=O)N[C@@H](CC(C)C)C(=O)[C@@]1(C)CO1 [Carfilzomib]
sgRNA knockout: sgATF3, 1 nM
  relative cell number: 88.3 ± 4.2
sgRNA knockout: sgATF3, 10 nM
  relative cell number: 72 ± 6.8
sgRNA knockout: sgATF3, 100 nM
  relative cell number: 20.8 ± 3
[1]
  relative cell number: 14.4 ± 3.8
sgRNA knockout: sgATF4, 1 nM
  relative cell number: 92.5 ± 8.9
sgRNA knockout: sgATF4, 10 nM
  relative cell number: 80.8 ± 5.8
sgRNA knockout: sgATF4, 100 nM
  relative cell number: 24.3 ± 9.4
[3]
  relative cell number: 9.44 ± 6.9
sgRNA knockout: sgATF6, 1 nM
  relative cell number: 80.6 ± 5.5
sgRNA knockout: sgATF6, 10 nM
  relative cell number: 78.3 ± 13
sgRNA knockout: sgATF6, 100 nM
  relative cell number: 20.1 ± 5.1
[5]
  relative cell number: 14.5 ± 4.3
sgRNA knockout: sgATG7, 1 nM
  relative cell number: 86.6 ± 1.3
sgRNA knockout: sgATG7, 10 nM
  relative cell number: 85.1 ± 4.8
sgRNA knockout: sgATG7, 100 nM
  relative cell number: 24.7 ± 3.6
[7]
  relative cell number: 13.5 ± 6.8
sgRNA knockout: sgERN1, 1 nM
  relative cell number: 88.3 ± 13
sgRNA knockout: sgERN1, 10 nM
  relative cell number: 77 ± 8.5
sgRNA knockout: sgERN1, 100 nM
  relative cell number: 24.4 ± 1
[9]
  relative cell number: 12.6 ± 6.4
sgRNA knockout: sgHSF1, 1 nM
  relative cell number: 76.7 ± 8.9
sgRNA knockout: sgHSF1, 10 nM
  relative cell number: 81.3 ± 4.2
sgRNA knockout: sgHSF1, 100 nM
  relative cell number: 19 ± 4.3
[11]
  relative cell number: 9.71 ± 5.1
sgRNA knockout: sgHSF2, 1 nM
  relative cell number: 92.09 ± 0.43
sgRNA knockout: sgHSF2, 10 nM
  relative cell number: 82.5 ± 19
sgRNA knockout: sgHSF2, 100 nM
  relative cell number: 21.8 ± 3.3
[13]
  relative cell number: 8.05 ± 0.48
sgRNA knockout: sgKEAP1, 1 nM
  relative cell number: 94.8 ± 4.1
sgRNA knockout: sgKEAP1, 10 nM
  relative cell number: 79.7 ± 7
[15]
  relative cell number: 22.5 ± 3.3
[16]
  relative cell number: 13.7 ± 2.6
sgRNA knockout: sgNFE2L2, 1 nM
  relative cell number: 72.2 ± 2.9
[18]
  relative cell number: 82.7 ± 22
[19]
  relative cell number: 17.1 ± 3.7
[20]
  relative cell number: 9.61 ± 4.5
sgRNA knockout: sgSLC35F2, 1 nM
  relative cell number: 71.6 ± 22
[22]
  relative cell number: 82.96 ± 0.18
[23]
  relative cell number: 19.9 ± 1.6
[24]
  relative cell number: 11.1 ± 5.8
sgRNA knockout: sgXBP1, 1 nM
  relative cell number: 88.9 ± 13
sgRNA knockout: sgXBP1, 10 nM
  relative cell number: 82.8 ± 4.2
sgRNA knockout: sgXBP1, 100 nM
  relative cell number: 20 ± 3.9
[26]
  relative cell number: 9.92 ± 1.1

## N.N.[Cl][Pt][Cl] [Cisplatin]
sgRNA knockout: sgATF3, 10 nM
  relative cell number: 104 ± 4.8
sgRNA knockout: sgATF3, 100 nM
  relative cell number: 80.7 ± 7.5
[1]
  relative cell number: 119 ± 0.32
[2]
  relative cell number: 105.4 ± 1
sgRNA knockout: sgATF4, 10 nM
  relative cell number: 104 ± 19
sgRNA knockout: sgATF4, 100 nM
  relative cell number: 92.7 ± 0.98
[3]
  relative cell number: 108 ± 2
[4]
  relative cell number: 95.3 ± 4
sgRNA knockout: sgATF6, 10 nM
  relative cell number: 103 ± 16
sgRNA knockout: sgATF6, 100 nM
  relative cell number: 86.2 ± 18
[5]
  relative cell number: 94.9 ± 15
[6]
  relative cell number: 111 ± 5.8
sgRNA knockout: sgATG7, 10 nM
  relative cell number: 113 ± 9.2
sgRNA knockout: sgATG7, 100 nM
  relative cell number: 88.8 ± 15
[7]
  relative cell number: 96.4 ± 10
[8]
  relative cell number: 107 ± 22
sgRNA knockout: sgERN1, 10 nM
  relative cell number: 112 ± 11
sgRNA knockout: sgERN1, 100 nM
  relative cell number: 73.91 ± 0.63
[9]
  relative cell number: 96.4 ± 10
[10]
  relative cell number: 117 ± 5.7
sgRNA knockout: sgHSF1, 10 nM
  relative cell number: 104 ± 5.3
sgRNA knockout: sgHSF1, 100 nM
  relative cell number: 79.3 ± 5.3
[11]
  relative cell number: 93.5 ± 2
[12]
  relative cell number: 93 ± 6.8
sgRNA knockout: sgHSF2, 10 nM
  relative cell number: 108 ± 17
sgRNA knockout: sgHSF2, 100 nM
  relative cell number: 75.9 ± 19
[13]
  relative cell number: 102 ± 10
[14]
  relative cell number: 95 ± 4.3
sgRNA knockout: sgKEAP1, 10 nM
  relative cell number: 116 ± 21
[15]
  relative cell number: 78.4 ± 7.2
[16]
  relative cell number: 93.5 ± 5.5
[17]
  relative cell number: 92.3 ± 8.4
[18]
  relative cell number: 104 ± 11
[19]
  relative cell number: 101 ± 12
[20]
  relative cell number: 108 ± 14
[21]
  relative cell number: 112 ± 3.9
[22]
  relative cell number: 108 ± 28
[23]
  relative cell number: 75.8 ± 4.9
[24]
  relative cell number: 93.2 ± 20
[25]
  relative cell number: 117 ± 15
sgRNA knockout: sgXBP1, 10 nM
  relative cell number: 107 ± 5.5
sgRNA knockout: sgXBP1, 100 nM
  relative cell number: 73.2 ± 3.5
[26]
  relative cell number: 103 ± 2.3
[27]
  relative cell number: 108 ± 2.5
